Measurements taken from PubChem BioAssay AID540256 (National Center for Advancing Translational Sciences (NCATS), 2011).
Several values for one entry are separate records, joined by “and”; a condition that tells them apart may be missing. Equal entries are not always repeated. Among all 300,000 compounds or so, about 3,700 (1.2%) were called active. The shares of active, inactive and inconclusive entries below differ from those in the screen. Calls follow the shape of the full dose curve; tested in HEK293 cells. A potency beside an inconclusive call is a rough fit, not a confirmed value.

Test: qHTS for Inhibitors of binding or entry into cells for Lassa Virus; also: nearly all actives have a fitted effect of over 50% in size
Details: Lassa virus pseudotype entry inhibition, cell reporter; activity change, negative = inhibition: at 37.9 µM (top of the series) unless noted
% is scaled to controls: 0 for no effect and ±100 for the full control effect; potency is read from the fitted curve at half-maximal effect.

Row | Compound | Potency | activity change, negative = inhibition
1 | O=C(NCc1ccccn1)c1cc(-c2ccccc2Cl)on1 | inconclusive: 20 µM [activator, single point] | –
2 | CCn1cc(CN2CCN(Cc3ccsc3)C(CCO)C2)cn1 (stereo not given) | – | inactive: -1.52% [at 46.1 µM]
3 | CC(C)(C)c1ccc(C(=O)NCCOc2ccccc2)cc1 | inconclusive: 1.41 µM [inhibitor, full curve, poor fit] | –
4 | O=[N+]([O-])c1ccc(NCc2ccccn2)nc1 | inconclusive: 17.8 µM [activator, single point] | –
5 | Cc1cccc2cc3c(N)c(C(=O)Nc4ccc(N5CCOCC5)cc4)sc3nc12 | active: 13 µM | –
6 | CCOC(=O)N1CCN(Cc2nc3cc(NC(C)=O)ccc3n2C(C)C)CC1 | – | inactive: -23.8% [at 46.1 µM]
7 | CCC(=O)Nc1ccc(-c2nnc(SCc3ccc(C(=O)Nc4nccs4)cc3)n2CC)cc1 | inconclusive: 17.8 µM [inhibitor, single point] | –
8 | CCN(CC)C(=S)SCC(=O)Nc1nc(-c2ccccc2)c(-c2ccccc2)o1 | inconclusive: 22.4 µM [inhibitor, single point] | –
9 | Cc1cccc(Cc2cnc(NC(=O)C3Cc4ccc(C)cc4C(=O)O3)s2)c1 (stereo not given) | – | inactive: -0.985% [at 46.1 µM]
10 | COc1ccc(NC(=O)C(=O)NCC(=O)Nc2cccc(C(F)(F)F)c2)cc1 | inconclusive: 1.12 µM [activator, single point] | –
11 | COc1ccc(Cn2ccc3nc(C)c(C(=O)N4CCN(c5cccc(OC)c5)CC4)cc3c2=O)cc1 | inconclusive: 14.1 µM [inhibitor, single point] | –
12 | CCCCC1CCC(C(=O)N2CC(=O)Nc3ccc(C)cc3C2c2ccc(F)cc2)CC1 (stereo not given) | inconclusive: 35.5 µM [inhibitor, single point] | –
13 | COc1ccc(NC(=O)c2c(NC(=O)C(F)(F)F)sc3c2CCCCC3)cc1 | active: 3.16 µM | –
14 | O=C(Nc1ccc(Br)cc1)c1csc(-c2ccncc2)n1 | – | inactive: -1.36%
15 | CS(=O)(=O)N(Cc1ccccc1)c1ccc(C(=O)Nc2cccc(Cl)c2)cc1 | inconclusive: 3.55 µM [inhibitor, partial curve, poor fit] | –
16 | O=C(Nc1nc2n(n1)C(c1ccccc1)C=C(c1ccccc1)N2)c1ccco1 (stereo not given) | – | inactive: 5.59%
17 | COc1ccc(CN2CCc3c(c(=O)n4ncc(C(=O)N5CCN(c6ccccc6F)CC5)c4n3C)C2)cc1 | – | inactive: -6.02% [at 46.1 µM]
18 | Cc1cc(C(=O)NNC(=S)Nc2ccccc2C)cs1 | inconclusive: 7.08 µM [activator, full curve, poor fit] | –
19 | N#CC(C#N)=Cc1ccc(N2CCCC2)cc1 | inconclusive: 35.5 µM [inhibitor, partial curve, poor fit] | –
20 | COc1cc(CNc2ccc3[nH]c(=O)[nH]c3c2)ccc1OCc1ccc(F)cc1Cl | inactive and inconclusive: 15.8 µM [inhibitor, single point] | –
21 | COc1ccc(OC)c(S(=O)(=O)N2CCCCC2C(=O)N2CCN(c3ccccn3)CC2)c1 (stereo not given) | inconclusive: 29.1 µM [inhibitor, single point] | –
22 | CCOC(=O)C1C(=O)C=C(c2ccccc2)CC1c1ccccc1 (stereo not given) | inconclusive: 35.5 µM [inhibitor, single point] | –
23 | CCOC(=O)NC(=O)COC(=O)c1ccc(O)cc1 | inconclusive: 0.447 µM [inhibitor, partial curve, poor fit] | –

Arranged by SMILES length (low to high): ten of the compounds above
Row | Compound | Potency | activity change, negative = inhibition
23 | CCOC(=O)NC(=O)COC(=O)c1ccc(O)cc1 | inconclusive: 0.447 µM [inhibitor, partial curve, poor fit] | –
1 | O=C(NCc1ccccn1)c1cc(-c2ccccc2Cl)on1 | inconclusive: 20 µM [activator, single point] | –
6 | CCOC(=O)N1CCN(Cc2nc3cc(NC(C)=O)ccc3n2C(C)C)CC1 | – | inactive: -23.8% [at 46.1 µM]
13 | COc1ccc(NC(=O)c2c(NC(=O)C(F)(F)F)sc3c2CCCCC3)cc1 | active: 3.16 µM | –
16 | O=C(Nc1nc2n(n1)C(c1ccccc1)C=C(c1ccccc1)N2)c1ccco1 (stereo not given) | – | inactive: 5.59%
15 | CS(=O)(=O)N(Cc1ccccc1)c1ccc(C(=O)Nc2cccc(Cl)c2)cc1 | inconclusive: 3.55 µM [inhibitor, partial curve, poor fit] | –
12 | CCCCC1CCC(C(=O)N2CC(=O)Nc3ccc(C)cc3C2c2ccc(F)cc2)CC1 (stereo not given) | inconclusive: 35.5 µM [inhibitor, single point] | –
7 | CCC(=O)Nc1ccc(-c2nnc(SCc3ccc(C(=O)Nc4nccs4)cc3)n2CC)cc1 | inconclusive: 17.8 µM [inhibitor, single point] | –
21 | COc1ccc(OC)c(S(=O)(=O)N2CCCCC2C(=O)N2CCN(c3ccccn3)CC2)c1 (stereo not given) | inconclusive: 29.1 µM [inhibitor, single point] | –
17 | COc1ccc(CN2CCc3c(c(=O)n4ncc(C(=O)N5CCN(c6ccccc6F)CC5)c4n3C)C2)cc1 | – | inactive: -6.02% [at 46.1 µM]

Remaining list, next part

Row | Compound | Potency | activity change, negative = inhibition
24 | COc1ccccc1S(=O)(=O)Cc1ccc(C(=O)NC2CCCCC2)o1 | – | inactive: -15.5%
25 | CCCS(=O)(=O)N1CC(=O)N(c2cccc(F)c2)C(C)(C(=O)NC2CCCCCC2)C1 (stereo not given) | – | inactive: 17.1% [at 46.1 µM]
26 | COC(=O)C1=C(C)N(c2ccccc2)/C(=C/c2cccs2)C1=O | inconclusive: 4.61 µM [inhibitor, partial curve, poor fit] | –
27 | CCOC(=O)c1cc2sc(C)cc2n1C(C)C(=O)OCC (stereo not given) | – | inactive: 0.36%
28 | CCc1ccc(NC(=O)CSc2nnc3[nH]c(=O)cc(-c4ccccc4)n23)cc1 | inconclusive: 3.55 µM [activator, single point] | –
29 | CCOC(=O)c1c(C)[nH]c(CCC(=O)Nc2ccccc2C(F)(F)F)c1C | inconclusive: 6.31 µM [inhibitor, single point] | –
30 | O=C(NCCc1ccccc1)c1ccc(OCCOc2ccccc2)cc1 | inconclusive: 13 µM [activator, partial curve, poor fit] | –
31 | O=C(Nc1nncs1)c1ccc(N2C(=O)C3C4C=CC(C4)C3C2=O)cc1 (stereo not given) | inconclusive: 29.1 µM [activator, single point] | –
32 | CN1CCN(c2nc(C#N)cc(-c3ccccc3)n2)CC1 | – | inactive: 1.11%
33 | Cc1ccc(CN2CCSc3ccc(C(=O)NC4CCN(Cc5ccccc5)CC4)cc32)cc1 | inconclusive: 2 µM [inhibitor, partial curve, poor fit] | –
34 | O=C(CSCc1c(Cl)cccc1Cl)NN=C1CCCC1 | inconclusive: 0.316 µM [inhibitor, full curve, poor fit] | –
35 | O=Cc1ccc(C(=O)OCC(=O)NC(=O)Nc2ccccc2F)cc1 | – | inactive: 9.03% [at 46.1 µM]
36 | COc1ccc(/C=N/NC(=O)CNc2ccc(Br)cc2)c(C(=O)O)c1OC | – | inactive: 6.84% [at 46.1 µM]
37 | CCOC(=O)C1CCN(Cc2ccc(Cl)c(Cl)c2)CC1 | – | inactive: 22.3%
38 | NC(=O)c1sc(-c2ccsc2)cc1NS(=O)(=O)c1ccc(C(F)(F)F)cc1 | inconclusive: 35.5 µM [inhibitor, single point] | –
39 | O=[N+]([O-])c1ccc2nc(N3CCNCC3)ccc2c1 | inconclusive: 7.3 µM [inhibitor, partial curve, poor fit] | –
40 | Cc1ccn2c(NC3CCCCC3)c(C)nc2c1 | inconclusive: 16.4 µM [inhibitor, single point] | –
41 | CCOC(=O)C(Cc1ccc(O)c([N+](=O)[O-])c1)N1C(=O)c2ccccc2C1=O (stereo not given) | – | inactive: 24.8%
42 | C=CCN1C(=O)NC(=O)/C(=C/c2ccoc2)C1=O | – | inactive: 6.99%
43 | COc1ccccc1Cn1c(C)nc2ccccc21 | – | inactive: 2.66%
44 | CCOc1ccccc1C1NC(=O)NC(C)=C1C(=O)OC1CCCC1C (stereo not given) | inconclusive: 25.1 µM [inhibitor, single point] | –
45 | CCOc1ccc(S(=O)(=O)N2Cc3ccccc3CC2C(=O)Nc2ccc(NC(C)=O)cc2)cc1 (stereo not given) | inconclusive: 10 µM [inhibitor, partial curve, poor fit] | –
